For 1 molecule, binding results are on record in publication PMC8671138.

No constants are given. Whether binding was seen depends on the method and setting. Tags and fused reporters may be left off the sequences shown.

The experiment deals with CD47 on WT Jurkat cells (human (endogenous in Jurkat)), Q08722. The experiment is described as follows: flow cytometry on cells; WT Jurkat cells stained with SIRPα-Fc or SIRPγ-Fc, FACS; conditions not told (mentioned in the discussion only); only the binder purified. As to conditions: remark: other sources report otherwise. (In flow cytometry, cells or beads pass a laser one at a time.)

B1: SIRPγ-Fc, Q9P1W8 29-360 (Fc fusion)
chain: EEELQMIQPEKLLLVTVGKTATLHCTVTSLLPVGPVLWFRGVGPGRELIYNQKEGHFPRVTTVSDLTKRNNMDFSIRISSITPADVGTYYCVKFRKGSPENVEFKSGPGTEMALGAKPSAPVVLGPAARTTPEHTVSFTCESHGFSPRDITLKWFKNGNELSDFQTNVDPTGQSVAYSIRSTARVVLDPWDVRSQVICEVAHVTLQGDPLRGTANLSEAIRVPPTLEVTQQPMRVGNQVNVTCQVRKFYPQSLQLTWSENGNVCQRETASTLTENKDGTYNWTSWFLVNISDQRDDVVLTCQVKHDGQLAVSKRLALEVTVHQKDQSSDATP
As for B1, the binding result is recorded as “no binding”.
